From patent US5538834A, “Blocked photographically useful compounds for use with peroxide-containing processes” (Eastman Kodak Company, priority 1994, dated 1996)

How the values were obtained:
[1] = Image dye formation activity (sensitometry) of blocked developing agents (Examples 3-5); conditions: activator with 0.6% hydrogen peroxide, pH 11, 77° F, 90 sec, strips incubated 1 week at 100° F, 50% relative humidity
[2] = Image formation with activator solutions with and without hydrogen peroxide, no incubation (Examples 6-9)
[3] = activator +H2O2, pH 11, without incubation
[4] = activator -H2O2, pH 11, without incubation

Structure (SMILES) | Dmax - Dmin [1] | Dmax - Dmin [2, 3] | Dmax - Dmin [2, 4]
CCC(=O)Oc1ccc(COC(=O)Nc2ccc(N(CC)CCNS(C)(=O)=O)cc2C)cc1NC(=O)c1ccc(NS(C)(=O)=O)cc1 [compound 6] | 0.22 | 0.15 | 0.00
CCN(CCNS(C)(=O)=O)c1ccc(NC(=O)OCc2ccc(OC(=O)C(C)C)c(NC(=O)CCCC(=O)O)c2)c(C)c1 [compound 3] | 1.10 |  | 
CCN(CCNS(C)(=O)=O)c1ccc(NC(=O)OCc2ccc(OC(=O)C(C)(C)C)c(NS(C)(=O)=O)c2)c(C)c1 [compound 1] | 0.82 | 0.62 | 0.28
